At least one compound was matched to its structure with a doubt left.
Assay: rotating disk intrinsic dissolution study
Conditions: pellet, water as dissolution medium

Cc1ccc(-c2cc(C(F)(F)F)nn2-c2ccc(S(N)(=O)=O)cc2)cc1 [celecoxib]
Dissolution in water: too slow to be detectable
